PubChem BioAssay AID1508597 – Cure First, 2020
Assay: 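Knock-downs altering ovarian cancer cell survival with or without PARP inhibitor rucaparib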 (primary screen). Cell system: human ovarian carcinoma lines grown from tumours: OCI-P5x (papillary serous) and OCI-C5x (clear cell). Knock-down reagent: siRNA pool against human genes, 1.25 pmol siRNA per well. Timing: 72 h or 96 h, depending on the cell culture. Treatment: rucaparib 20 µM (about IC30) or vehicle, present until read-out. Rucaparib or vehicle: Rucaparib. Cell line: OCI-C5x (clear cell). Measured: 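ATP luminescence measured at 72 or 96 h according to the culture, then normalised and expressed as percent viability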. Scale: viability, normalised: higher = more viable cells remaining. Call rule: 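Active when normalised viability falls below 80 percent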. Meaning of the calls: active = viability under 80%; inactive = viability 80% or more.
This is a random part of the about 2,100 reagents, under one of the conditions tested. 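Calls flag viability under 80% in either arm, not effects specific to rucaparib; the reference for percent is not stated.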 Some reagents were tested in more than one well and are listed for each. No sequences are given here. Not stated in the record: the 100% reference.

no.	Target gene	technical replicate	viability, normalised (%)	outcome
1	NQO2	1	69.8	active
2	NQO2	2	66.5	active
3	NQO2	3	65.4	active
4	PCDHB9	1	49.4	active
5	PCDHB9	2	56.8	active
6	PCDHB9	3	44.8	active
7	TAOK1	1	65.8	active
8	TAOK1	2	62.6	active
9	TAOK1	3	67	active
10	DCLK2	1	47.7	active
11	DCLK2	2	46.5	active
12	DCLK2	3	47.9	active
13	MED31	1	54.2	active
14	MED31	2	45.4	active
15	MED31	3	70	active
16	SLIT1	1	36.9	active
17	SLIT1	2	40.4	active
18	SLIT1	3	41	active
19	EPHA7	1	68	active
20	EPHA7	2	64.1	active
21	EPHA7	3	59	active
22	SUPV3L1	1	54	active
23	SUPV3L1	1	48.5	active
24	SUPV3L1	2	42.4	active
25	SUPV3L1	2	36.1	active
26	SUPV3L1	3	58.9	active
27	SUPV3L1	3	42.4	active
28	CLDN18	1	51.2	active
29	CLDN18	2	44.2	active
30	CLDN18	3	53.6	active

No new results follow: entries from further up.
no.	Target gene	technical replicate	viability, normalised (%)	outcome
5	PCDHB9	2	56.8	active
6	PCDHB9	3	44.8	active
7	TAOK1	1	65.8	active
8	TAOK1	2	62.6	active
9	TAOK1	3	67	active
10	DCLK2	1	47.7	active
11	DCLK2	2	46.5	active

Additional entries:
no.	Target gene	technical replicate	viability, normalised (%)	outcome
31	PDP1	1	58.2	active
32	PDP1	2	67.9	active
33	PDP1	3	63.5	active
34	PDE8B	1	60.7	active
35	PDE8B	2	74.7	active
36	PDE8B	3	51.6	active
37	SALL1	1	41.7	active
38	SALL1	2	44.8	active
39	SALL1	3	33.6	active
40	TLR8	1	73.5	active
41	TLR8	2	65.6	active
42	TLR8	3	59.1	active
43	SRSF1	1	51.4	active
44	SRSF1	2	31.7	active
45	SRSF1	3	41.3	active
46	PHF7	1	43.6	active
47	PHF7	2	52.9	active
48	PHF7	3	32.9	active
49	MORC1	1	46.1	active
50	MORC1	2	45.4	active
51	MORC1	3	58	active
52	GRK5	1	60.2	active
53	GRK5	2	67.1	active
54	GRK5	3	48.7	active
55	NEK6	1	66.4	active
56	NEK6	2	59.2	active
57	NEK6	3	64.6	active
